Reference: the supplement of paper PMC6411743
± gives the standard deviation of the averaged measurements. The list shows a part of the results, in another mix than the full data. Most values lie at the level of the controls, where differences are scatter.

Sequences of proteins named here, by UniProt entry; tags and fusion partners are left off. A change or cut given only in a name is not applied to a line headed by its entry.
UniProt O43237, whole entry: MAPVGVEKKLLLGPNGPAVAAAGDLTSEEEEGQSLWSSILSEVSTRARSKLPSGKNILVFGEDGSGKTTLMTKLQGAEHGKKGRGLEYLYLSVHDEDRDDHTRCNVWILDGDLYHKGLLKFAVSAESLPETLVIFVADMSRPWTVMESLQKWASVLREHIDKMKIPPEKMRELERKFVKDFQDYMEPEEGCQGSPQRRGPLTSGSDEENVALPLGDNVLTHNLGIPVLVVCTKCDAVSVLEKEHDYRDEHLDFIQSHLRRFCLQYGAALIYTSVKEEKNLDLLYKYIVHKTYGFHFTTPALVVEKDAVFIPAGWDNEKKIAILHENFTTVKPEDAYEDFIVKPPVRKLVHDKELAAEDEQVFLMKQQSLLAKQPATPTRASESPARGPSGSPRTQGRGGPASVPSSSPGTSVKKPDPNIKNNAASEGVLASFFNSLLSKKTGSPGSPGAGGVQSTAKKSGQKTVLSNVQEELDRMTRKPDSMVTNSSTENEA
UniProt P52272: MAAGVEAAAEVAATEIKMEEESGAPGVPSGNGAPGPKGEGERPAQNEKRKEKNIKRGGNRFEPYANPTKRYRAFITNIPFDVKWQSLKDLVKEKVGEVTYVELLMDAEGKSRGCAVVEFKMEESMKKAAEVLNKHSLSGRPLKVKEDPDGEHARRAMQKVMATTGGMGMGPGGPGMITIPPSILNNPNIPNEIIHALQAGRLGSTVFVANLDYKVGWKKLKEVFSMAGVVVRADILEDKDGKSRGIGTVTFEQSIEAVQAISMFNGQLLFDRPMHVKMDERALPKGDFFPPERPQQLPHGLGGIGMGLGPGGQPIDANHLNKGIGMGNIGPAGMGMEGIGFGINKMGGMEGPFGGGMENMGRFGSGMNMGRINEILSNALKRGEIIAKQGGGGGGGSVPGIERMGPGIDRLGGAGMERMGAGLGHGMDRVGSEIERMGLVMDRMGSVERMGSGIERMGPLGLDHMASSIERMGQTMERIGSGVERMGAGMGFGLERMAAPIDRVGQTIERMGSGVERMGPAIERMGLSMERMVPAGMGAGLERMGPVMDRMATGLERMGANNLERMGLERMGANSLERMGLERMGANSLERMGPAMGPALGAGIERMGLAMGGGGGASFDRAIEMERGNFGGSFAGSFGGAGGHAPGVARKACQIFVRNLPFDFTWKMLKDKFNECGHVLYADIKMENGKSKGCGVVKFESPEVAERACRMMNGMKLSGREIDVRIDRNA
UniProt O43257, whole entry: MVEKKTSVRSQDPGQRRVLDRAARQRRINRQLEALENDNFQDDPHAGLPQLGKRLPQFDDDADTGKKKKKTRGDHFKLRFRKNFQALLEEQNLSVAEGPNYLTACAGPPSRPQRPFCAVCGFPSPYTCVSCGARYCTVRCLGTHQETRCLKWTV
UniProt O15169, whole entry: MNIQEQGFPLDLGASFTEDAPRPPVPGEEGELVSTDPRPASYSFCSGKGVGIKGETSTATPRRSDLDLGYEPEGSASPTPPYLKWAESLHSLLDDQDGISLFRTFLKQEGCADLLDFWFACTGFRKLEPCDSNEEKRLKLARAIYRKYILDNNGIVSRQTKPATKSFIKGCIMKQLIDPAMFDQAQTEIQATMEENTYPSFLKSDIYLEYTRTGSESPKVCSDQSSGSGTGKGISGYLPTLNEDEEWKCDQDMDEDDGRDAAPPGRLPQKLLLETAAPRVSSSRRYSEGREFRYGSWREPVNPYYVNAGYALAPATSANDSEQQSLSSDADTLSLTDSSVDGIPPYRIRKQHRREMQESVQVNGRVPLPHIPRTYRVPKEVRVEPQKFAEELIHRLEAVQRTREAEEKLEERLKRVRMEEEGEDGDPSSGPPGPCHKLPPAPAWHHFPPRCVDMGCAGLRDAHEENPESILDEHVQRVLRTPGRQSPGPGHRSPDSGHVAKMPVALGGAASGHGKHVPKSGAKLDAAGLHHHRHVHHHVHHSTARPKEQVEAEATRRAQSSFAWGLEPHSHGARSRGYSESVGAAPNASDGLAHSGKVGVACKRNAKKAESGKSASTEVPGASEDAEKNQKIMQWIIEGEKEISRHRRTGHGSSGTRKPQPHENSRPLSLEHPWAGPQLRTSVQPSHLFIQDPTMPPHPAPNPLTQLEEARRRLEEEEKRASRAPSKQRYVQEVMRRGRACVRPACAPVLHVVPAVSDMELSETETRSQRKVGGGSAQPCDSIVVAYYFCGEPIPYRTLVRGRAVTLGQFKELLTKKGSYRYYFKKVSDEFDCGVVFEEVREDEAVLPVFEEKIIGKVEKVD
UniProt O15047, whole entry: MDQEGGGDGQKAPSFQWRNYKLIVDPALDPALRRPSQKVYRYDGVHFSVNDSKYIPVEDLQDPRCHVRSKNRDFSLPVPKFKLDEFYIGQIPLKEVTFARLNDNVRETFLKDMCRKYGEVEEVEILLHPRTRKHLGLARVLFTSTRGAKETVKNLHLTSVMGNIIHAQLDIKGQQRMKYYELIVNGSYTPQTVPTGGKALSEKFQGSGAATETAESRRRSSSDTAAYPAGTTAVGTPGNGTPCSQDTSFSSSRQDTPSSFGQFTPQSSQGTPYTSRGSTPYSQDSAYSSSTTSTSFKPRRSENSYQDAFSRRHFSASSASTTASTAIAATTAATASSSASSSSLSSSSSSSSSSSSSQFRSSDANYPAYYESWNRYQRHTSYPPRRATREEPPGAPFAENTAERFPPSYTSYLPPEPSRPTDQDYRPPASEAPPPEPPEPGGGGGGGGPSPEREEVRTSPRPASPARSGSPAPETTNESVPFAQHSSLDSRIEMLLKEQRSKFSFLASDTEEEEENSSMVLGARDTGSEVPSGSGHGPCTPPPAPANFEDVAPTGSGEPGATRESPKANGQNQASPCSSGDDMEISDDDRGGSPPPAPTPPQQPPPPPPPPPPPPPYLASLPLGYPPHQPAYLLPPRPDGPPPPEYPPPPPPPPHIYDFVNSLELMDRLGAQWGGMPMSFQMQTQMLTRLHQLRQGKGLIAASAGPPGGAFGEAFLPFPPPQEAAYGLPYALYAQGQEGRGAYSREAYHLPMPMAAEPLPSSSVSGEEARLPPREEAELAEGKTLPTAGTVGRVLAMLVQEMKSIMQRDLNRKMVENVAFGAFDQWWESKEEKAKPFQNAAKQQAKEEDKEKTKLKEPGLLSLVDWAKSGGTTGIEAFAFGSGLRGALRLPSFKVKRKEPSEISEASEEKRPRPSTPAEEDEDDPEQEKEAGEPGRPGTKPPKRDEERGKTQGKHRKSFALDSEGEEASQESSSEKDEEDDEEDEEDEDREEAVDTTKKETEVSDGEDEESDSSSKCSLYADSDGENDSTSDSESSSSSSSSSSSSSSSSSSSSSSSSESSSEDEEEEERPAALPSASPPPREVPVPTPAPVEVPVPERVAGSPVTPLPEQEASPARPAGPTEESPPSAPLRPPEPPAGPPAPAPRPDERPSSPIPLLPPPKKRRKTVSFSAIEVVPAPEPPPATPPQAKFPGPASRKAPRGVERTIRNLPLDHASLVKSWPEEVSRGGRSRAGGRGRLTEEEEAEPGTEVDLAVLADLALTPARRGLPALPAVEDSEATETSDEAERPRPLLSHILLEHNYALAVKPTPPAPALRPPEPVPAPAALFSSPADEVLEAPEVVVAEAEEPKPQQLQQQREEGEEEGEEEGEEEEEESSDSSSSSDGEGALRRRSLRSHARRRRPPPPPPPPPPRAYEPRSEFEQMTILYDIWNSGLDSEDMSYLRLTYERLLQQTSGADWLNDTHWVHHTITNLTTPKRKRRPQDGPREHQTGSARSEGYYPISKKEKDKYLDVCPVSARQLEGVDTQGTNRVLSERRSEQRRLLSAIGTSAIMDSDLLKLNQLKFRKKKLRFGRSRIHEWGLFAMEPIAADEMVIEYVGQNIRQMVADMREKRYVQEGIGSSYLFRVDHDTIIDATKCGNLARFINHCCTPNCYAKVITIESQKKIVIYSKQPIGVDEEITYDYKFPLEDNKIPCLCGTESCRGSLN
UniProt O00161: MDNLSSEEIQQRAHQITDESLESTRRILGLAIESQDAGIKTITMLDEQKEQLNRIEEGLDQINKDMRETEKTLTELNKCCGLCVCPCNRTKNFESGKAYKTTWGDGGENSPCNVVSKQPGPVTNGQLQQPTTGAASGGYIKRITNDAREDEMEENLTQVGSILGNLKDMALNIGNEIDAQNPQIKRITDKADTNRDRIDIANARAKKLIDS
UniProt O43678, whole entry: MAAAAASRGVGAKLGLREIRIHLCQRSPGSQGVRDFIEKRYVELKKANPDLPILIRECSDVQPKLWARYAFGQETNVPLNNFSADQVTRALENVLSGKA
UniProt O43513: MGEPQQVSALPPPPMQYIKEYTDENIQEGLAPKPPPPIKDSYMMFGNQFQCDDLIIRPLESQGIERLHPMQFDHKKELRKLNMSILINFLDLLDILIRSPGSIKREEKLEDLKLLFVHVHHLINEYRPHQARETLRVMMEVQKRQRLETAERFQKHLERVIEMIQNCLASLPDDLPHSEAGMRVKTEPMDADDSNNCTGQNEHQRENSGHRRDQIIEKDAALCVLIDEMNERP
UniProt O00151: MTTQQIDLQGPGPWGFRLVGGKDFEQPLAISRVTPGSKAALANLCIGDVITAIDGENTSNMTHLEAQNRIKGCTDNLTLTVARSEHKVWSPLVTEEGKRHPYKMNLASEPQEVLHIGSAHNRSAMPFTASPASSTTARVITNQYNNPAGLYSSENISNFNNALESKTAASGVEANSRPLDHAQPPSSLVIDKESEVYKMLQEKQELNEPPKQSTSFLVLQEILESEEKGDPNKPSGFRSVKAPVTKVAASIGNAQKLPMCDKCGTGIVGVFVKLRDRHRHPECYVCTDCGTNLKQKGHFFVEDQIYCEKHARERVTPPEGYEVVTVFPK
UniProt O14933: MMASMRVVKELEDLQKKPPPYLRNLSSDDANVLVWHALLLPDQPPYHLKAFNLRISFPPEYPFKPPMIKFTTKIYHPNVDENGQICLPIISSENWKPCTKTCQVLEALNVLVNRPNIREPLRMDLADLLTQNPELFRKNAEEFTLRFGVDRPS
UniProt O00232: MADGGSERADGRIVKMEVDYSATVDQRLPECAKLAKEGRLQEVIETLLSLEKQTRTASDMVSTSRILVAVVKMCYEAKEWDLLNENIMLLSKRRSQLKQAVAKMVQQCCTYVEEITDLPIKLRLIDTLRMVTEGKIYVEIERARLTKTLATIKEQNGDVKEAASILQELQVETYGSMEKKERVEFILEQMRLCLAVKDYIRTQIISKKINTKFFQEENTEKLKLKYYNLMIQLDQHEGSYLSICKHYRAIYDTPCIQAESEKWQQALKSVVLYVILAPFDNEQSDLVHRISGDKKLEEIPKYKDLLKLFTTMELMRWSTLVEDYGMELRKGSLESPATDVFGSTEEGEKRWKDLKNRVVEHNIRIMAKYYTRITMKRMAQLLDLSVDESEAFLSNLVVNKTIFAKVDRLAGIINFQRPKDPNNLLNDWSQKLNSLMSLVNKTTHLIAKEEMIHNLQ
UniProt O00560: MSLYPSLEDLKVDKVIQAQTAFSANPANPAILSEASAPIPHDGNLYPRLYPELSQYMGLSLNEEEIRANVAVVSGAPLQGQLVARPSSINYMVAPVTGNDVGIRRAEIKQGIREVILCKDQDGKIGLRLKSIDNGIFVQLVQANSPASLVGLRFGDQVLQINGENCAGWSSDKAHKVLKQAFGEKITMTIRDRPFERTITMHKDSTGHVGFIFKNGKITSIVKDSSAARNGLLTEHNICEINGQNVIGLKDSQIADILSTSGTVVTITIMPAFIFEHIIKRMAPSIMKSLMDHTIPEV
UniProt O43924: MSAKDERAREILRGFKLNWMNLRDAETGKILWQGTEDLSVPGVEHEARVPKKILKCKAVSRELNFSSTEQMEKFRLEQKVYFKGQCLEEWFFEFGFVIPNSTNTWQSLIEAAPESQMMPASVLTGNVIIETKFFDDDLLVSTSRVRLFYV
UniProt O15446, whole entry: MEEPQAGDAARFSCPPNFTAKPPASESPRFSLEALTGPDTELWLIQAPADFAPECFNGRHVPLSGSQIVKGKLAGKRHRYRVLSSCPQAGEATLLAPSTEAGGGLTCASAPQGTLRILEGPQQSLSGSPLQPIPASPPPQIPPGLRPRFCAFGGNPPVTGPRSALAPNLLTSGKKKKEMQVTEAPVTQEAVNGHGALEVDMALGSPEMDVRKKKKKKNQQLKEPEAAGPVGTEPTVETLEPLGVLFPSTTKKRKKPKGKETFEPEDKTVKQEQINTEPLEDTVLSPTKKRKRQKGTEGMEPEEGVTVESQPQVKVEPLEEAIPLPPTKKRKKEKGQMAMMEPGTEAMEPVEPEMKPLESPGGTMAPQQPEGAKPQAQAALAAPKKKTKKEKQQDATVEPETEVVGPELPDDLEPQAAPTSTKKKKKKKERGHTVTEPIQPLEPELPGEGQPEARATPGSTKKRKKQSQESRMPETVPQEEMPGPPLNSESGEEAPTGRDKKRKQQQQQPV
UniProt O14966: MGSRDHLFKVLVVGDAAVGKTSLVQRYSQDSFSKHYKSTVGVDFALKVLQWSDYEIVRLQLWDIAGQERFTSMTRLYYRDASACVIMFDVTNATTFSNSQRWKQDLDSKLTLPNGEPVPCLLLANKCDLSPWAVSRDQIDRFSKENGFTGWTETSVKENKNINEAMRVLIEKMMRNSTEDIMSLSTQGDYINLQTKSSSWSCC

Compound: Nc1ncnc2c1ncn2[C@@H]1O[C@H](COP(=O)(O)OP(=O)(O)OP(=O)(O)O)[C@@H](O)[C@H]1O [adenosine triphosphate]
Test: NP40-soluble protein abundance relative to vehicle (solubility fold change) (ratio); higher = more soluble protein in presence of ATP
How it was run: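 Jurkat crude lysate (Dounce-homogenised) was treated with eight concentrations from 0.1 to 10 mM for 10 min at room temperature, then 3 min at 37 °C. It was solubilised with 0.8% NP40 and benzonase (60 min, 4 °C) and ultracentrifuged, and the supernatant was TMT-labelled for LC-MS/MS. Intensities were vsn-normalised, and the value is the fold change against the NP40-processed vehicle per replicate, from three independent experiments.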

In the case of UniProt O15371 and related entries, the NP40-soluble protein abundance (concentration: 0.1mM) is reported as 0.999 ± 0.063 and the NP40-soluble protein abundance (concentration: 0.5mM) is reported as 1 ± 0.052.

Work on DYNC1LI2 (UniProt O43237) yielded an NP40-soluble protein abundance (concentration: 0.1mM) of 0.976 ± 0.028, an NP40-soluble protein abundance (concentration: 0.5mM) of 0.997 ± 0.068 and an NP40-soluble protein abundance (concentration: 1mM) of 0.947 ± 0.049. For the same target, the NP40-soluble protein abundance (concentration: 2mM) was 0.939 ± 0.049, the NP40-soluble protein abundance (concentration: 4mM) was 0.905 ± 0.047 and the NP40-soluble protein abundance (concentration: 6mM) was 0.959 ± 0.14. The NP40-soluble protein abundance (concentration: 8mM) was 0.92 ± 0.075 and the NP40-soluble protein abundance (concentration: 10mM) was 0.932 ± 0.032.

For “M0QZM1 and related entries (UniProt P52272)”, the NP40-soluble protein abundance (concentration: 0.1mM) was 0.9963 ± 0.0089, the NP40-soluble protein abundance (concentration: 0.5mM) was 1.02 ± 0.043 and the NP40-soluble protein abundance (concentration: 1mM) was 0.988 ± 0.037. It also gave an NP40-soluble protein abundance (concentration: 2mM) of 0.999 ± 0.016, an NP40-soluble protein abundance (concentration: 4mM) of 1.01 ± 0.032 and an NP40-soluble protein abundance (concentration: 6mM) of 1.07 ± 0.014. The NP40-soluble protein abundance (concentration: 8mM) was 1.04 ± 0.019 and the NP40-soluble protein abundance (concentration: 10mM) was 1.06 ± 0.024.

ZNHIT1 (UniProt O43257) was tested, and the NP40-soluble protein abundance (concentration: 0.1mM) was 1.06 ± 0.1, the NP40-soluble protein abundance (concentration: 0.5mM) was 1.04 ± 0.11 and the NP40-soluble protein abundance (concentration: 1mM) was 1.12 ± 0.047. It also gave an NP40-soluble protein abundance (concentration: 2mM) of 1.16 ± 0.012, an NP40-soluble protein abundance (concentration: 4mM) of 1.27 ± 0.042 and an NP40-soluble protein abundance (concentration: 6mM) of 1.3 ± 0.037. It also gave an NP40-soluble protein abundance (concentration: 8mM) of 1.16 ± 0.037 and an NP40-soluble protein abundance (concentration: 10mM) of 1.19 ± 0.073.

HMGN4 (UniProt O00479) gave an NP40-soluble protein abundance (concentration: 0.1mM) of 0.999 ± 0.23, an NP40-soluble protein abundance (concentration: 0.5mM) of 0.954 ± 0.52 and an NP40-soluble protein abundance (concentration: 1mM) of 0.97 ± 0.35. The NP40-soluble protein abundance (concentration: 2mM) was 1.27 ± 0.44, the NP40-soluble protein abundance (concentration: 4mM) was 1.22 ± 0.47 and the NP40-soluble protein abundance (concentration: 6mM) was 1.67 ± 0.86. For the same target, the NP40-soluble protein abundance (concentration: 8mM) was 1.63 ± 0.72 and the NP40-soluble protein abundance (concentration: 10mM) was 2.97 ± 2.3.

HAT1 (UniProt O14929) showed an NP40-soluble protein abundance (concentration: 0.1mM) of 1.02 ± 0.11, an NP40-soluble protein abundance (concentration: 0.5mM) of 1.02 ± 0.063 and an NP40-soluble protein abundance (concentration: 1mM) of 1.01 ± 0.16. The NP40-soluble protein abundance (concentration: 2mM) was 0.995 ± 0.098, the NP40-soluble protein abundance (concentration: 4mM) was 0.957 ± 0.08 and the NP40-soluble protein abundance (concentration: 6mM) was 0.895 ± 0.15. The NP40-soluble protein abundance (concentration: 8mM) was 0.97 ± 0.09 and the NP40-soluble protein abundance (concentration: 10mM) was 0.955 ± 0.04.

For UniProt O14524, the NP40-soluble protein abundance (concentration: 0.1mM) was 0.85 ± 0.054, the NP40-soluble protein abundance (concentration: 0.5mM) was 0.906 ± 0.039 and the NP40-soluble protein abundance (concentration: 1mM) was 0.824 ± 0.11. The NP40-soluble protein abundance (concentration: 2mM) was 0.887 ± 0.1, the NP40-soluble protein abundance (concentration: 4mM) was 0.841 ± 0.017 and the NP40-soluble protein abundance (concentration: 6mM) was 0.899 ± 0.066. For the same target, the NP40-soluble protein abundance (concentration: 8mM) was 0.872 ± 0.029 and the NP40-soluble protein abundance (concentration: 10mM) was 0.896 ± 0.036.

For URB1 (UniProt O60287), the NP40-soluble protein abundance (concentration: 0.1mM) was 1.1 ± 0.013, the NP40-soluble protein abundance (concentration: 0.5mM) was 1.15 ± 0.022 and the NP40-soluble protein abundance (concentration: 1mM) was 1.29 ± 0.067. For the same target, the NP40-soluble protein abundance (concentration: 2mM) was 1.41 ± 0.043, the NP40-soluble protein abundance (concentration: 4mM) was 1.65 ± 0.057 and the NP40-soluble protein abundance (concentration: 6mM) was 1.7 ± 0.12. The NP40-soluble protein abundance (concentration: 8mM) was 1.94 ± 0.12 and the NP40-soluble protein abundance (concentration: 10mM) was 2.15 ± 0.084.

UniProt O15169 and related entries gave an NP40-soluble protein abundance (concentration: 0.1mM) of 1.06 ± 0.27, an NP40-soluble protein abundance (concentration: 0.5mM) of 0.92 ± 0.092 and an NP40-soluble protein abundance (concentration: 1mM) of 1.05 ± 0.17. For the same target, the NP40-soluble protein abundance (concentration: 2mM) was 0.887 ± 0.14, the NP40-soluble protein abundance (concentration: 4mM) was 0.982 ± 0.19 and the NP40-soluble protein abundance (concentration: 6mM) was 1.07 ± 0.18. It also gave an NP40-soluble protein abundance (concentration: 8mM) of 1 ± 0.047 and an NP40-soluble protein abundance (concentration: 10mM) of 1.15 ± 0.21.

With SETD1A (UniProt O15047) the NP40-soluble protein abundance (concentration: 0.1mM) was 0.963 ± 0.021, the NP40-soluble protein abundance (concentration: 0.5mM) was 0.968 ± 0.063 and the NP40-soluble protein abundance (concentration: 1mM) was 0.962 ± 0.038. The NP40-soluble protein abundance (concentration: 2mM) was 0.97 ± 0.018, the NP40-soluble protein abundance (concentration: 4mM) was 0.979 ± 0.022 and the NP40-soluble protein abundance (concentration: 6mM) was 0.997 ± 0.044. For the same target, the NP40-soluble protein abundance (concentration: 8mM) was 0.969 ± 0.049 and the NP40-soluble protein abundance (concentration: 10mM) was 0.997 ± 0.046.

SNAP23 (UniProt O00161) showed an NP40-soluble protein abundance (concentration: 0.1mM) of 0.92 ± 0.058, an NP40-soluble protein abundance (concentration: 0.5mM) of 0.911 ± 0.068 and an NP40-soluble protein abundance (concentration: 1mM) of 0.944 ± 0.077. The NP40-soluble protein abundance (concentration: 2mM) was 0.947 ± 0.024, the NP40-soluble protein abundance (concentration: 4mM) was 0.943 ± 0.021 and the NP40-soluble protein abundance (concentration: 6mM) was 1 ± 0.061. For the same target, the NP40-soluble protein abundance (concentration: 8mM) was 0.921 ± 0.02 and the NP40-soluble protein abundance (concentration: 10mM) was 0.883 ± 0.03.

NDUFA2 (UniProt O43678) showed an NP40-soluble protein abundance (concentration: 0.1mM) of 0.862 ± 0.15, an NP40-soluble protein abundance (concentration: 0.5mM) of 0.831 ± 0.12 and an NP40-soluble protein abundance (concentration: 1mM) of 0.882 ± 0.1. For the same target, the NP40-soluble protein abundance (concentration: 2mM) was 0.874 ± 0.16, the NP40-soluble protein abundance (concentration: 4mM) was 0.924 ± 0.1 and the NP40-soluble protein abundance (concentration: 6mM) was 0.985 ± 0.21. The NP40-soluble protein abundance (concentration: 8mM) was 0.876 ± 0.081 and the NP40-soluble protein abundance (concentration: 10mM) was 0.835 ± 0.13.

For MED7 (UniProt O43513), the NP40-soluble protein abundance (concentration: 0.1mM) was 1.04 ± 0.18, the NP40-soluble protein abundance (concentration: 0.5mM) was 1.12 ± 0.19 and the NP40-soluble protein abundance (concentration: 1mM) was 1.23 ± 0.3. It also gave an NP40-soluble protein abundance (concentration: 2mM) of 1.17 ± 0.091, an NP40-soluble protein abundance (concentration: 4mM) of 1.09 ± 0.056 and an NP40-soluble protein abundance (concentration: 6mM) of 1.2 ± 0.37. It also gave an NP40-soluble protein abundance (concentration: 8mM) of 1.23 ± 0.26 and an NP40-soluble protein abundance (concentration: 10mM) of 1.28 ± 0.34.

PDLIM1 (UniProt O00151) was tested, and the NP40-soluble protein abundance (concentration: 0.1mM) was 0.983 ± 0.017, the NP40-soluble protein abundance (concentration: 0.5mM) was 0.992 ± 0.028 and the NP40-soluble protein abundance (concentration: 1mM) was 0.963 ± 0.054. The NP40-soluble protein abundance (concentration: 2mM) was 0.958 ± 0.031, the NP40-soluble protein abundance (concentration: 4mM) was 0.944 ± 0.041 and the NP40-soluble protein abundance (concentration: 6mM) was 0.971 ± 0.016. The NP40-soluble protein abundance (concentration: 8mM) was 0.939 ± 0.035 and the NP40-soluble protein abundance (concentration: 10mM) was 0.919 ± 0.036.

Target UniProt O15392 and related entries has an NP40-soluble protein abundance (concentration: 0.1mM) of 1.71 ± 1.4, an NP40-soluble protein abundance (concentration: 0.5mM) of 0.926 ± 0.21 and an NP40-soluble protein abundance (concentration: 1mM) of 0.961 ± 0.1. It also gave an NP40-soluble protein abundance (concentration: 2mM) of 2.09 ± 1.6, an NP40-soluble protein abundance (concentration: 4mM) of 1.13 ± 0.09 and an NP40-soluble protein abundance (concentration: 6mM) of 1.23 ± 0.031. For the same target, the NP40-soluble protein abundance (concentration: 8mM) was 1.26 ± 0.092 and the NP40-soluble protein abundance (concentration: 10mM) was 1.31 ± 0.16.

With UBE2L6 (UniProt O14933) the NP40-soluble protein abundance (concentration: 0.1mM) was 0.9 ± 0.062 and the NP40-soluble protein abundance (concentration: 0.5mM) was 0.913 ± 0.15.

With PSMD12 (UniProt O00232) the NP40-soluble protein abundance (concentration: 0.1mM) was 0.97 ± 0.037, the NP40-soluble protein abundance (concentration: 0.5mM) was 0.95 ± 0.023 and the NP40-soluble protein abundance (concentration: 1mM) was 0.938 ± 0.063. For the same target, the NP40-soluble protein abundance (concentration: 2mM) was 0.894 ± 0.035, the NP40-soluble protein abundance (concentration: 4mM) was 0.863 ± 0.015 and the NP40-soluble protein abundance (concentration: 6mM) was 0.843 ± 0.025. The NP40-soluble protein abundance (concentration: 8mM) was 0.898 ± 0.031 and the NP40-soluble protein abundance (concentration: 10mM) was 0.885 ± 0.035.

Target UniProt O00560 and related entries has an NP40-soluble protein abundance (concentration: 0.1mM) of 0.989 ± 0.03, an NP40-soluble protein abundance (concentration: 0.5mM) of 0.978 ± 0.022 and an NP40-soluble protein abundance (concentration: 1mM) of 0.95 ± 0.073. The NP40-soluble protein abundance (concentration: 2mM) was 0.946 ± 0.041, the NP40-soluble protein abundance (concentration: 4mM) was 0.937 ± 0.04 and the NP40-soluble protein abundance (concentration: 6mM) was 0.896 ± 0.077. For the same target, the NP40-soluble protein abundance (concentration: 8mM) was 0.9459 ± 0.0062 and the NP40-soluble protein abundance (concentration: 10mM) was 0.957 ± 0.031.

Work on PDE6D (UniProt O43924) yielded an NP40-soluble protein abundance (concentration: 0.1mM) of 1.08 ± 0.072 and an NP40-soluble protein abundance (concentration: 0.5mM) of 1 ± 0.052.

Work on UniProt O15446 and related entries yielded an NP40-soluble protein abundance (concentration: 0.1mM) of 0.872 ± 0.032 and an NP40-soluble protein abundance (concentration: 0.5mM) of 0.902 ± 0.027.

In the case of UniProt O14966 and related entries, the NP40-soluble protein abundance (concentration: 0.1mM) is reported as 1.04 ± 0.022, the NP40-soluble protein abundance (concentration: 0.5mM) is reported as 1.03 ± 0.046 and the NP40-soluble protein abundance (concentration: 1mM) is reported as 0.995 ± 0.072. The NP40-soluble protein abundance (concentration: 2mM) was 1.01 ± 0.075, the NP40-soluble protein abundance (concentration: 4mM) was 0.958 ± 0.099 and the NP40-soluble protein abundance (concentration: 6mM) was 1.03 ± 0.09. It also gave an NP40-soluble protein abundance (concentration: 8mM) of 0.99 ± 0.1 and an NP40-soluble protein abundance (concentration: 10mM) of 1.01 ± 0.04.

Work on UniProt O00154-4|O00154-5 yielded an NP40-soluble protein abundance (concentration: 0.1mM) of 1.04 ± 0.087 and an NP40-soluble protein abundance (concentration: 0.5mM) of 0.987 ± 0.025.
